This passage reports binding results from publication PMC11631767.

Experiment [1] deals with V5-tagged EML4-Alk v1 ΔTD mutant (trimerization domain deleted). Put plainly: co-IP; V5 immunoprecipitation (antibody-loaded agarose beads, 4 °C overnight) from RIPA lysates of Beas2B cells transfected with V5-tagged EML4-Alk v1 full length or ΔTD; blots for endogenous proteins.
The target of experiment [2] is V5-tagged EML4-Alk variant 1 (v1), full length. Described as above.

No constants are given. Whether binding was seen depends on the method and setting. In cells and extracts the contact can be indirect. Binding can be weak; no strength is given.

B1: YWHAG (14-3-3 protein) (protein, UniProt P61981 1-247)
chain: MVDREQLVQKARLAEQAERYDDMAAAMKNVTELNEPLSNEERNLLSVAYKNVVGARRSSWRVISSIEQKTSADGNEKKIEMVRAYREKIEKELEAVCQDVLSLLDNYLIKNCSETQYESKVFYLKMKGDYYRYLAEVATGEKRATVVESSEKAYSEAHEISKEHMQPTHPIRLGLALNYSVFYYEIQNAPEQACHLAKTAFDDAIAELDTLNEDSYKDSTLIMQLLRDNLTLWTSDQQDDDGGEGNN
Turning to B1, the binding entry in experiment [1] and in experiment [2] was “binds” each time.
